± gives the standard deviation of the averaged measurements. Most values lie within the scatter of the assay; repeated measurements hardly agree.
Compound: CC[C@@H](C)Nc1cc(C(=O)N[C@H]2C[C@H]3CC[C@@H](C2)N3c2ccc(C(=O)C3CC3)cn2)c(C)cc1C(N)=O [XL888]
Assay: phosphopeptide melting temperature shift (XL888 minus DMSO); higher = stabilised by drug treatment
Settings: 100 µM; treatment time 2 h; layout: intact cells; SK-Mel 24
Experimental: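 Phospho-TPP in intact SK-Mel 24 cells treated with 100 uM XL888 or DMSO for 2 h, heated at 10 temperatures (37-67 C) for 3 min, soluble fraction TMT10plex-labelled and TiO2 phospho-enriched. Melting curves were fitted per phosphopeptide; the value is the melting point difference (drug minus vehicle) in each of two biological replicates.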

Protein sequences, listed by entry. Tags and fused reporters are not part of them. Lines headed by an entry give the natural chain unless they say otherwise; changes in a name come on top.
UniProt Q9NYF8, whole entry, looked up: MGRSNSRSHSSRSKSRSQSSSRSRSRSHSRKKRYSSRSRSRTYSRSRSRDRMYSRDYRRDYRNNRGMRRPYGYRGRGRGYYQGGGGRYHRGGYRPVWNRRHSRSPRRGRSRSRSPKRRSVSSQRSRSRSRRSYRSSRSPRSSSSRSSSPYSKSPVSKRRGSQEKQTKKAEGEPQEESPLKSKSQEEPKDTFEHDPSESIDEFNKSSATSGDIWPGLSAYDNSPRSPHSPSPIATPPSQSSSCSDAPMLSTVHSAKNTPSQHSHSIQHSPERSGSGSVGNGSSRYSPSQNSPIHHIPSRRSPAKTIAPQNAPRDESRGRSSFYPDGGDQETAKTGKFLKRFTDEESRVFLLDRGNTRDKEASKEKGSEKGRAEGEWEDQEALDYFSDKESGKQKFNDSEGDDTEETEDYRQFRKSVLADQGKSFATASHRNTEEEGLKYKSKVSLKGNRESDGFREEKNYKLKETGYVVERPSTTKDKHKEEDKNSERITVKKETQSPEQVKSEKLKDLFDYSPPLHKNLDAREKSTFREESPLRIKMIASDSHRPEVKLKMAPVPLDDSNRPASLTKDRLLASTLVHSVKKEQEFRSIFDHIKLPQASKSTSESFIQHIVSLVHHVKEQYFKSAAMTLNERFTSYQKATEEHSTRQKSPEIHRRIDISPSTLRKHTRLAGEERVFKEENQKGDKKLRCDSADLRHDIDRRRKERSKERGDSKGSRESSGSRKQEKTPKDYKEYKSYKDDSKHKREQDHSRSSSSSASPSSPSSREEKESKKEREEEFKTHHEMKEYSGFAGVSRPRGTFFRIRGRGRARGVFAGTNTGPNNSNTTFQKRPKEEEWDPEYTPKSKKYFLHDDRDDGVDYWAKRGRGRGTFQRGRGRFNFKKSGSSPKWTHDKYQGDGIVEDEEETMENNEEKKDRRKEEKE
UniProt Q9P260: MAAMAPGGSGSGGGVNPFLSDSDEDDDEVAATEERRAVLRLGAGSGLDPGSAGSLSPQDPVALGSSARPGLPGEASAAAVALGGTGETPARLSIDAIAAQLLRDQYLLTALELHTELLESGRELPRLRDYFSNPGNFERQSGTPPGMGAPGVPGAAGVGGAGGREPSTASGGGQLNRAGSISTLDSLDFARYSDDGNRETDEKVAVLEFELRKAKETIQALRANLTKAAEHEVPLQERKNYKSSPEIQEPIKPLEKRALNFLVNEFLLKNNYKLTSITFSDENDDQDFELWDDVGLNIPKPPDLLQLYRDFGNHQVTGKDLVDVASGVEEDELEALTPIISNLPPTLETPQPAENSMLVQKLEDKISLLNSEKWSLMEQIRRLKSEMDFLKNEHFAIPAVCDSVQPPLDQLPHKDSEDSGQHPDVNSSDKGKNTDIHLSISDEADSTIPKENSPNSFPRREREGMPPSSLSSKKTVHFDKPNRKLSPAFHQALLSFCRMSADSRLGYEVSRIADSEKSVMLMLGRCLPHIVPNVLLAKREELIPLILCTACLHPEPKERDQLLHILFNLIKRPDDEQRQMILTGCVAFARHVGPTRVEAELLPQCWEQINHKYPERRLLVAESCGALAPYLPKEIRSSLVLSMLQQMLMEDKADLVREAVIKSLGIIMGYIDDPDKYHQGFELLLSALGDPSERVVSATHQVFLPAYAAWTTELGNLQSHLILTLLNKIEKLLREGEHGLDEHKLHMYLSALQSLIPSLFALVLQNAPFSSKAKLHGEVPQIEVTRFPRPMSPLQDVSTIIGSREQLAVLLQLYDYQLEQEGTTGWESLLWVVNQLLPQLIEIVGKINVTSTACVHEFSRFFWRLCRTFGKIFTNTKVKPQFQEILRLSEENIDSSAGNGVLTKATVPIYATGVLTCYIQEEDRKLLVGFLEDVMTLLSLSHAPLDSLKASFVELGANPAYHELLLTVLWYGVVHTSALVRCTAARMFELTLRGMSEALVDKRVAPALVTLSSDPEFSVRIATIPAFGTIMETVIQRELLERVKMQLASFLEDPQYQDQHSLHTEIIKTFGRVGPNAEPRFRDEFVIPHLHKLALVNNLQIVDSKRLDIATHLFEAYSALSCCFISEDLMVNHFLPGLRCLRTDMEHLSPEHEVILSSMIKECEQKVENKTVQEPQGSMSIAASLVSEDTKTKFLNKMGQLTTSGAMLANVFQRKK
UniProt Q9Y4E1, whole entry, looked up: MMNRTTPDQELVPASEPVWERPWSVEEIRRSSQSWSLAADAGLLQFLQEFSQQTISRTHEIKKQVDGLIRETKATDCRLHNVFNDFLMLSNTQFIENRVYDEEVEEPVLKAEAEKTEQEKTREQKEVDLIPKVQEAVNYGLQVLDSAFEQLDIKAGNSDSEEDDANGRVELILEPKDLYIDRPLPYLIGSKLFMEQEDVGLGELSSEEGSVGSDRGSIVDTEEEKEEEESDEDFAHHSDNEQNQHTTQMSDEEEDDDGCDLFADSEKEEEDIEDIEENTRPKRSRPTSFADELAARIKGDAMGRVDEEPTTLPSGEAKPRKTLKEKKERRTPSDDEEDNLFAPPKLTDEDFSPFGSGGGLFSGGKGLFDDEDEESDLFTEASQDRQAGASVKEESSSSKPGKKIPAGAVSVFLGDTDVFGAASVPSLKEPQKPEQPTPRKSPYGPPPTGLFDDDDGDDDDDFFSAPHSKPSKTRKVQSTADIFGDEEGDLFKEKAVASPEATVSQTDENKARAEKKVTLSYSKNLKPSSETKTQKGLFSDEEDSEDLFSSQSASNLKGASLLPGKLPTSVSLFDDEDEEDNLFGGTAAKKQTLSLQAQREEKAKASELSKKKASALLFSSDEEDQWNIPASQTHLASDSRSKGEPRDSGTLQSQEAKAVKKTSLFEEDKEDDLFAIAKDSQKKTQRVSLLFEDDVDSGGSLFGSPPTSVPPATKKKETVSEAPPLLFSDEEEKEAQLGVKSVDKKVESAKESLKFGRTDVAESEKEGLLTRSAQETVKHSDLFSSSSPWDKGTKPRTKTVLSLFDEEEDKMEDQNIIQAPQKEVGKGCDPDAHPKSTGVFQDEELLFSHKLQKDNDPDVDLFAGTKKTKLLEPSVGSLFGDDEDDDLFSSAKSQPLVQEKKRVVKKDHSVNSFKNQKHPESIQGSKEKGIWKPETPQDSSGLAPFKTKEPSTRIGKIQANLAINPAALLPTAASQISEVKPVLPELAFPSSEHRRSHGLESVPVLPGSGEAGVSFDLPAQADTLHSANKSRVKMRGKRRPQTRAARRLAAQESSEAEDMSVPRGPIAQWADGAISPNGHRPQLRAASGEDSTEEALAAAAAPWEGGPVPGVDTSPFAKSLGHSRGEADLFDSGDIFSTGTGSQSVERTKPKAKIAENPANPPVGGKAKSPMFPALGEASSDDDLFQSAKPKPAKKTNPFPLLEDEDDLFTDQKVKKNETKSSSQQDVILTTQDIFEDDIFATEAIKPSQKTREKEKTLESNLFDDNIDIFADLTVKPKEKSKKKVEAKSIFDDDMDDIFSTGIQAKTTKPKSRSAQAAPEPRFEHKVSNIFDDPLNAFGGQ
UniProt Q96CV9, whole entry, looked up: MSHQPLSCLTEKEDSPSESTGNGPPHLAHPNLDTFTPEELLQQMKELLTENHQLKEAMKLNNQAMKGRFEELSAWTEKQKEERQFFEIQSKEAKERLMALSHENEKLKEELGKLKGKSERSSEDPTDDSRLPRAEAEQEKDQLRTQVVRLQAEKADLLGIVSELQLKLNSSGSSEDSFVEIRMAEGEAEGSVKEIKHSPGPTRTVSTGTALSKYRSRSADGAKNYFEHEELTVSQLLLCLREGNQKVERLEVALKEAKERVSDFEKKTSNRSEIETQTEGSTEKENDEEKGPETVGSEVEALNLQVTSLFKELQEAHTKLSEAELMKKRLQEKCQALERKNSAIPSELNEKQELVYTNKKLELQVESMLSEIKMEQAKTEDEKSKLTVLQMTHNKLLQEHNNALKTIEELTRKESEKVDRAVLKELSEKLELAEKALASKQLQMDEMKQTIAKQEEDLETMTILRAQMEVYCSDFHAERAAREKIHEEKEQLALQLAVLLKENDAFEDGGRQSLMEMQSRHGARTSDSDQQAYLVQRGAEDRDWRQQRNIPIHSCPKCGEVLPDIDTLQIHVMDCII
UniProt Q96TA0: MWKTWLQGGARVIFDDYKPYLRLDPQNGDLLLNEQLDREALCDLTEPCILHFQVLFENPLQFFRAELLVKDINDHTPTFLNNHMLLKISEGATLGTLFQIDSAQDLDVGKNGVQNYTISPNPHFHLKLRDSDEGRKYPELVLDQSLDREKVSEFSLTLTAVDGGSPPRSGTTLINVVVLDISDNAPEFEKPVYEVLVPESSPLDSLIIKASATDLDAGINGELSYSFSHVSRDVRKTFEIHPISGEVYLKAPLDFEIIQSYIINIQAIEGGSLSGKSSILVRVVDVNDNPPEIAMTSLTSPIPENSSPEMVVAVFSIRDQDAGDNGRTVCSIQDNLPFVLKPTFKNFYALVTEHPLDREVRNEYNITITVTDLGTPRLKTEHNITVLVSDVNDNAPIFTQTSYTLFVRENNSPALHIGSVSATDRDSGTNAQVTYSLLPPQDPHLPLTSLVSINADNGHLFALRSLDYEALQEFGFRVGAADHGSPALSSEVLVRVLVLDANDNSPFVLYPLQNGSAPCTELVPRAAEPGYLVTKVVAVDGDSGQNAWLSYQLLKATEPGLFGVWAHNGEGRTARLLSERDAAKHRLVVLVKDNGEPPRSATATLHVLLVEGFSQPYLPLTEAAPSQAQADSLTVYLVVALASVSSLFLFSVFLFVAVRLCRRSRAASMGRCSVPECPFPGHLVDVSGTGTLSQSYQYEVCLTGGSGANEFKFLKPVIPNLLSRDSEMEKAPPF
UniProt Q01105, whole entry, looked up: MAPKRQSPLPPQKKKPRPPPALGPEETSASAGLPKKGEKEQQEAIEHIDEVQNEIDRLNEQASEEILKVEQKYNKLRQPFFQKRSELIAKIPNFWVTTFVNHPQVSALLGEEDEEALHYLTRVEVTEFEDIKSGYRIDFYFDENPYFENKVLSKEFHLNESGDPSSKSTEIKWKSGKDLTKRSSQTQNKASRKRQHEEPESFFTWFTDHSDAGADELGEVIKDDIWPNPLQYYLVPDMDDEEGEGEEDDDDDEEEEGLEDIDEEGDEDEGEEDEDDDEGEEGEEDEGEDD
UniProt Q05655: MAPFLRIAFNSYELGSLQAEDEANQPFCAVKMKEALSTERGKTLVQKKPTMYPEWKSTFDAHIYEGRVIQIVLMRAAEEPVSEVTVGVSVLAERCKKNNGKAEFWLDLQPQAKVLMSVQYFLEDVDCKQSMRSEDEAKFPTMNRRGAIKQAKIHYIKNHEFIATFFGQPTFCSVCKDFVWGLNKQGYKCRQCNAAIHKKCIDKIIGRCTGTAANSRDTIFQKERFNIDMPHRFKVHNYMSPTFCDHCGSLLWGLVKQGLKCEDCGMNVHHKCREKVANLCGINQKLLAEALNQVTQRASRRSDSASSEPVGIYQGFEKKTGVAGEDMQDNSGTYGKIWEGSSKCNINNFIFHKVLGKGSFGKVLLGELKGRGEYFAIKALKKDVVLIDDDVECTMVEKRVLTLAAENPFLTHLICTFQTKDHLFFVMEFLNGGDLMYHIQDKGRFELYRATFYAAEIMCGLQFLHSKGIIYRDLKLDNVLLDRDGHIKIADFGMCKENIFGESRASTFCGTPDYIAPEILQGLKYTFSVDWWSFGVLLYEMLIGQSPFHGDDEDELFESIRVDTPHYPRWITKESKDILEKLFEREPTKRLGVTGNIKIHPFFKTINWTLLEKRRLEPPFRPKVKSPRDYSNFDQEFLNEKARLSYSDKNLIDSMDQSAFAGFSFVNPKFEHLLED
UniProt Q13131: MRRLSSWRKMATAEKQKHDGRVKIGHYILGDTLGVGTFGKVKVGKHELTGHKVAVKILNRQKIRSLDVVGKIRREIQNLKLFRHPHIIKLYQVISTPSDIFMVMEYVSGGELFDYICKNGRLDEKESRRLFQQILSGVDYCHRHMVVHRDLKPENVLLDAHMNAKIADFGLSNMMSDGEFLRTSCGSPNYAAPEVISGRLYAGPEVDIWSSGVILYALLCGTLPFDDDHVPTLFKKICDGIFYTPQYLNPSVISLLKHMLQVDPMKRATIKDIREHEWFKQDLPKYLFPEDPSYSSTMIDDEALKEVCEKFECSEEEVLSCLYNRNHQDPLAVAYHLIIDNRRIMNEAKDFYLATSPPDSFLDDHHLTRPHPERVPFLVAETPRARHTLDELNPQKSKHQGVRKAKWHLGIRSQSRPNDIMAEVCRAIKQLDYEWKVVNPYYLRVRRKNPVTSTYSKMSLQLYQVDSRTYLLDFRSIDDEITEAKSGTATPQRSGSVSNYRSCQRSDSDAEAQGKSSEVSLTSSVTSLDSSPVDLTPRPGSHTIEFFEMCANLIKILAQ
UniProt Q86U90: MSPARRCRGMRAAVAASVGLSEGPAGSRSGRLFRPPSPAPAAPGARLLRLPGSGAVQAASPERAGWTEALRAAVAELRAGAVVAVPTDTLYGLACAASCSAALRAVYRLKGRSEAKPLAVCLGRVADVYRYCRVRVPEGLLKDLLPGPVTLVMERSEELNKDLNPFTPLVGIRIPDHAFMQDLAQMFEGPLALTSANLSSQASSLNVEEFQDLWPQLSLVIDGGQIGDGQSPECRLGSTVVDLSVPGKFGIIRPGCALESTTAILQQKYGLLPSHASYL

Target | phosphopeptide melting temperature shift [°C]
UniProt Q9NYF8-3_phosphosite_658 (phosphosite position: 658) | 1.34
UniProt Q9P1Y6-2_phosphosite_915 (phosphosite position: 915) | 2.21
UniProt Q9P1Y6-2_phosphosite_1202 (phosphosite position: 1202) | 1.84 ± 2.8
UniProt Q9P260_phosphosite_180 (phosphosite position: 180) | -0.485
UniProt Q9UBF8-2_phosphosite_413 (phosphosite position: 413) | 1.47
UniProt Q9UJF2-2_phosphosite_159 (phosphosite position: 159) | -0.127
UniProt Q9UKA8-6_phosphosite_27 (phosphosite position: 27) | 2.08
UniProt Q9UKE5-6_phosphosite_651 (phosphosite position: 651) | 0.781 ± 0.13
UniProt Q9UKM9-2_phosphosite_119 (phosphosite position: 119) | 2.63
UniProt Q9ULU8-2_phosphosite_91 (phosphosite position: 91) | 1.55 ± 0.34
UniProt Q9UPN3-4_phosphosite_280 (phosphosite position: 280) | -1.71
UniProt Q9UPN9-2_phosphosite_1102 (phosphosite position: 1102) | -0.766
UniProt Q9Y2U5_phosphosite_153 (phosphosite position: 153) | -2.23
UniProt Q9Y3R5-2_phosphosite_610 (phosphosite position: 610) | -0.33 ± 0.045
UniProt Q9Y4E1-6_phosphosite_539 (phosphosite position: 539) | 2.14
UniProt Q9Y4F5-3_phosphosite_290 (phosphosite position: 290) | 2.3
UniProt Q9Y4P8-4_phosphosite_395 (phosphosite position: 395) | -1.09
UniProt Q9Y6M1-1_phosphosite_162 (phosphosite position: 162) | -0.24
UniProt Q9Y608-4_phosphosite_96 (phosphosite position: 96) | 0.387
UniProt Q71U36-2_phosphosite_13 (phosphosite position: 13) | -0.724
UniProt Q86V48-2_phosphosite_394 (phosphosite position: 394) | 0.326 ± 0.2
UniProt Q86V48-2_phosphosite_659 (phosphosite position: 659) | -0.755 ± 0.17
UniProt Q86W92-2_phosphosite_534 (phosphosite position: 534) | 0.564 ± 0.54
UniProt Q86W92-2_phosphosite_596 (phosphosite position: 596) | -0.142
UniProt Q86W92-2_phosphosite_597 (phosphosite position: 597) | 0.393
UniProt Q86W92-3_phosphosite_387 (phosphosite position: 387) | 0.549

Target | phosphopeptide melting temperature shift [°C]
UniProt Q96B97-2_phosphosite_550 (phosphosite position: 550) | -0.359
UniProt Q96CA5_phosphosite_37 (phosphosite position: 37) | -1.66
UniProt Q96CV9-3_phosphosite_468 (phosphosite position: 468) | 2.19
UniProt Q96CV9-3_phosphosite_469 (phosphosite position: 469) | 0.126
UniProt Q96I15-2_phosphosite_129 (phosphosite position: 129) | 1.73 ± 0.85
UniProt Q96K21-2_phosphosite_134 (phosphosite position: 134) | 1.79
UniProt Q96K21-3_phosphosite_286 (phosphosite position: 286) | 3.46
UniProt Q96PU5-9_phosphosite_307 (phosphosite position: 307) | 0.231
UniProt Q96RR4-6_phosphosite_100 (phosphosite position: 100) | 0.242 ± 0.064
UniProt Q96S55-2_phosphosite_133 (phosphosite position: 133) | -0.708 ± 0.76
UniProt Q96S55-2_phosphosite_153 (phosphosite position: 153) | -0.591
UniProt Q96T37-4_phosphosite_248 (phosphosite position: 248) | -0.413
UniProt Q96TA0_phosphosite_131 (phosphosite position: 131) | -0.328
UniProt Q96TA1-2_phosphosite_679 (phosphosite position: 679) | 0.137
UniProt Q00341_phosphosite_31 (phosphosite position: 31) | -0.256
UniProt Q641Q2-2_phosphosite_728 (phosphosite position: 728) | -1.89
UniProt Q641Q2-2_phosphosite_802 (phosphosite position: 802) | -0.375
UniProt Q01105-2_phosphosite_23 (phosphosite position: 23) | -0.66
UniProt Q02241-3_phosphosite_503 (phosphosite position: 503) | 5.7
UniProt Q04637-6_phosphosite_1013 (phosphosite position: 1013) | -1.02
UniProt Q04637-6_phosphosite_1015 (phosphosite position: 1015) | -0.415 ± 0.32
UniProt Q05209-2_phosphosite_543 (phosphosite position: 543) | -0.175
UniProt Q05519-2_phosphosite_207 (phosphosite position: 207) | 0.475
UniProt Q05519-2_phosphosite_433 (phosphosite position: 433) | 0.888
UniProt Q05655_phosphosite_645 (phosphosite position: 645) | -0.331 ± 0.33
UniProt Q06210-2_phosphosite_243 (phosphosite position: 243) | -4.9

A different layout for part of the listing above:
UniProt Q96I15-2_phosphosite_129 (phosphosite position: 129)
  phosphopeptide melting temperature shift [°C]: 1.73 ± 0.85
UniProt Q96K21-2_phosphosite_134 (phosphosite position: 134)
  phosphopeptide melting temperature shift [°C]: 1.79
UniProt Q96K21-3_phosphosite_286 (phosphosite position: 286)
  phosphopeptide melting temperature shift [°C]: 3.46
UniProt Q96PU5-9_phosphosite_307 (phosphosite position: 307)
  phosphopeptide melting temperature shift [°C]: 0.231

Following part

Target | phosphopeptide melting temperature shift [°C]
UniProt Q13017-2_phosphosite_1218 (phosphosite position: 1218) | 0.423
UniProt Q13131_phosphosite_498 (phosphosite position: 498) | -0.249
UniProt Q13242_phosphosite_221 (phosphosite position: 221) | 1.99
UniProt Q13367-3_phosphosite_240 (phosphosite position: 240) | -0.197
UniProt Q13428-6_phosphosite_906 (phosphosite position: 906) | -0.137 ± 0.29
UniProt Q13428-6_phosphosite_1190 (phosphosite position: 1190) | -1.57
UniProt Q13459-2_phosphosite_1115 (phosphosite position: 1115) | 1.07
UniProt Q13459-2_phosphosite_1281 (phosphosite position: 1281) | 0.477 ± 0.21
UniProt Q13459-2_phosphosite_1290 (phosphosite position: 1290) | -0.126
UniProt Q13459-2_phosphosite_1354 (phosphosite position: 1354) | 1.01
UniProt Q13625-2_phosphosite_575 (phosphosite position: 575) | 0.663 ± 0.026
UniProt Q13627-3_phosphosite_321 (phosphosite position: 321) | -1.24
UniProt Q13671-2_phosphosite_351 (phosphosite position: 351) | 0.656
UniProt Q14195-2_phosphosite_636 (phosphosite position: 636) | 2.9
UniProt Q14241_phosphosite_151 (phosphosite position: 151) | -0.61 ± 0.12
UniProt Q14498-2_phosphosite_97 (phosphosite position: 97) | 0.395
UniProt Q14693-6_phosphosite_168 (phosphosite position: 168) | -1.63
UniProt Q15139_phosphosite_742 (phosphosite position: 742) | -3.01
UniProt Q15642-4_phosphosite_296 (phosphosite position: 296) | -0.287
UniProt Q16181-2_phosphosite_333 (phosphosite position: 333) | 0.41 ± 0.94
UniProt Q16555-2_phosphosite_473 (phosphosite position: 473) | 1.93 ± 1.7
UniProt Q16875-3_phosphosite_441 (phosphosite position: 441) | -0.163
XPO5 phosphosite_416 (phosphosite position: 416) (UniProt Q9HAV4) | -2.39
YRDC phosphosite_37 (phosphosite position: 37) (UniProt Q86U90) | 0.0367 ± 0.37
